Values quoted from earlier work as cited in patent US6184254A, “Methods of identifying modulators of perivascular sensory nerve Ca2+ receptors” (priority 1998, dated 2001).
The name of at least one read-out is uncertain.

System: parathyroid CaR
Settings: parathyroid CaR agonist potency; read-out: Rank order potency, parathyroid; cited from earlier work

SMILES	EC50 [nM]
C1CNCCNCCNCCNCCNCCN1 [A]	21000
C[C@@H](N[C@H](C)c1cccc2ccccc12)c1ccc2ccccc2c1 [D]	72
CC(Cc1ccccc1)NCCC(c1ccccc1)c1ccccc1 (centres unmarked) [G]	700
CC(NCCC(c1ccccc1)c1ccccc1)c1ccccc1 (centres unmarked) [I]	15000
COc1cccc([C@@H](C)NCCCc2ccccc2OC)c1 [NPS R831]	300
